Some entries share one result that the patent states for a list of compounds. Some ranges recur; such a range may be that of the whole group of compounds.
How the values were obtained:
L428, MDR + HL = assay type: cell-based; conditions: cAC10 ADCs DAR 4; range over the conjugates named
Procedure: (§1) Cell culture of cell lines as listed in Table 2-4 in log-phase growth were seeded in 96-well plates and grown for 24 h in cell culture media containing 150 μL RPMI 1640 supplemented with 20% FBS (see Mol. Cancer Ther., 2016, 15(5), 938-945 and Mol. Cancer Ther., 2018, 17(8), 1752-1760). Serial dilutions of free drugs or antibody-drug conjugates (final concentration between 0.004 nM and 1 μM) in cell culture media were prepared at 4× working concentrations; 50 μL of each dilution was added to the 96-well plates. Following addition of the drug or ADC, the cells were incubated with test articles (free drugs or ADCs) for 4 d at 37° C. After 96 h, growth inhibition was assessed by CellTiter-Glo® (Promega, Madison, WI) and luminescence was measured on a plate reader (brand, model).
(§2) Anti-CD30 ADCs comprising cAC10 antibody conjugated to drug-linkers 24, 32, 29, 18, 14, and 48 with an average DAR of 4 were prepared for evaluation on a CD30-expressing lymphoma cell line panel. […] Anti-CD30 conjugates bearing the PNU linkers 24, 32, 29, 18, and 14 were active on L540cy, DEL, and Karpas299 lymphoma cell lines, and conjugate 48 was active on L540cy and DEL cell lines, with IC50s ranging from 0.2-4 ng/mL.

[1] = system: CD30-expressing lymphoma cell line panel; assay type: cell-based; conditions: cAC10 ADCs DAR 4; range over L540cy, DEL, Karpas299 (48: L540cy, DEL) and over the conjugates named
Procedure: as §1, §2

Compound | IC50s on multidrug resistant L428 lymphoma cell line (L428, MDR + HL) [ng/mL] | IC50s of anti-CD30 conjugates [1] [ng/mL]
COc1cccc2c1C(=O)c1c(O)c3c(c(O)c1C2=O)C[C@@](O)(C(=O)NCCNC(=O)CCN1C(=O)C=CC1=O)C[C@@H]3O[C@H]1C[C@H]2[C@H](O[C@@H]3[C@@H](OC)OCCN32)[C@H](C)O1 [Compound 14, (2S,4S)—N-(2-(3-(2,5-dioxo-2,5-dihydro-1H-pyrrol-1-yl)propanamido)ethyl)-2,5,12-trihydroxy-7-methoxy-4-(((1S,3R,4aS,9S,9aR,10aS)-9-methoxy-1-methyloctahydro-1H-pyrano[4′,3′:4,5]oxazolo[2,3-c][1,4]oxazin-3-yl)oxy)-6,11-dioxo-1,2,3,4,6,11-hexahydrotetracene-2-carboxamide] | 3 to 610 | 0.2 to 4
COc1cccc2c1C(=O)c1c(O)c3c(c(O)c1C2=O)C[C@@](O)(C(=O)NCCNC(=O)CNC(=O)CNC(=O)CNC(=O)CCN1C(=O)C=CC1=O)C[C@@H]3O[C@H]1C[C@H]2[C@H](O[C@@H]3[C@@H](OC)OCCN32)[C@H](C)O1 [Compound 18, (2S,4S)—N-(15-(2,5-dioxo-2,5-dihydro-1H-pyrrol-1-yl)-4,7,10,13-tetraoxo-3,6,9,12-tetraazapentadecyl)-2,5,12-trihydroxy-7-methoxy-4-(((1S,3R,4aS,9S,9aR,10aS)-9-methoxy-1-methyloctahydro-1H-pyrano[4′,3′:4,5]oxazolo[2,3-c][1,4]oxazin-3-yl)oxy)-6,11-dioxo-1,2,3,4,6,11-hexahydrotetracene-2-carboxamide] | 3 to 610 | 0.2 to 4
COc1cccc2c1C(=O)c1c(O)c3c(c(O)c1C2=O)C[C@@](O)(C(=O)NCCNC(=O)OCc1ccc(NC(=O)[C@H](C)NC(=O)[C@@H](NC(=O)CCN2C(=O)C=CC2=O)C(C)C)cc1)C[C@@H]3O[C@H]1C[C@H]2[C@H](O[C@@H]3[C@@H](OC)OCCN32)[C@H](C)O1 [Compound 24, 4-((S)-2-((S)-2-(3-(2,5-dioxo-2,5-dihydro-1H-pyrrol-1-yl)propanamido)-3-methylbutanamido)propanamido)benzyl (2-((2S,4S)-2,5,12-trihydroxy-7-methoxy-4-(((1S,3R,4aS,9S,9aR,10aS)-9-methoxy-1-methyloctahydro-1H-pyrano[4′,3′:4,5]oxazolo[2,3-c][1,4]oxazin-3-yl)oxy)-6,11-dioxo-1,2,3,4,6,11-hexahydrotetracene-2-carboxamido)ethyl)carbamate] | – | 0.2 to 4
COc1cccc2c1C(=O)c1c(O)c3c(c(O)c1C2=O)C[C@@](O)(C(=O)NCCNC(=O)CNC(=O)CNC(=O)CNC(=O)OCc1ccc(NC(=O)[C@H](C)NC(=O)[C@@H](NC(=O)CCN2C(=O)C=CC2=O)C(C)C)cc1)C[C@@H]3O[C@H]1C[C@H]2[C@H](O[C@@H]3[C@@H](OC)OCCN32)[C@H](C)O1 [Compound 29, 4-((S)-2-((S)-2-(3-(2,5-dioxo-2,5-dihydro-1H-pyrrol-1-yl)propanamido)-3-methylbutanamido)propanamido)benzyl (1,6,9,12-tetraoxo-1-((2S,4S)-2,5,12-trihydroxy-7-methoxy-4-(((1S,3R,4aS,9S,9aR,10aS)-9-methoxy-1-methyloctahydro-1H-pyrano[4′,3′:4,5]oxazolo[2,3-c][1,4]oxazin-3-yl)oxy)-6,11-dioxo-1,2,3,4,6,11-hexahydrotetracen-2-yl)-2,5,8,11-tetraazatridecan-13-yl)carbamate] | – | 0.2 to 4
COc1cccc2c1C(=O)c1c(O)c3c(c(O)c1C2=O)C[C@@](O)(C(=O)N(C)CCN(C)C(=O)OCc1ccc(NC(=O)[C@H](C)NC(=O)[C@@H](NC(=O)CCN2C(=O)C=CC2=O)C(C)C)cc1)C[C@@H]3O[C@H]1C[C@H]2[C@H](O[C@@H]3[C@@H](OC)OCCN32)[C@H](C)O1 [Compound 32, 4-((S)-2-((S)-2-(3-(2,5-dioxo-2,5-dihydro-1H-pyrrol-1-yl)propanamido)-3-methylbutanamido)propanamido)benzyl methyl(2-((2S,4S)-2,5,12-trihydroxy-7-methoxy-4-(((1S,3R,4aS,9S,9aR,10aS)-9-methoxy-1-methyloctahydro-1H-pyrano[4′,3′:4,5]oxazolo[2,3-c][1,4]oxazin-3-yl)oxy)-N-methyl-6,11-dioxo-1,2,3,4,6,11-hexahydrotetracene-2-carboxamido)ethyl)carbamate] | 3 to 610 | 0.2 to 4
COc1cccc2c1C(=O)c1c(O)c3c(c(O)c1C2=O)C[C@@](O)(C(=O)NCCNC(=O)CNC(=O)[C@H](C)NC(=O)[C@@H](NC(=O)CCN1C(=O)C=CC1=O)C(C)C)C[C@@H]3O[C@H]1C[C@H]2[C@H](O[C@@H]3[C@@H](OC)OCCN32)[C@H](C)O1 [Compound 48, (2S,4S)—N-((8S,11S)-15-(2,5-dioxo-2,5-dihydro-1H-pyrrol-1-yl)-11-isopropyl-8-methyl-4,7,10,13-tetraoxo-3,6,9,12-tetraazapentadecyl)-2,5,12-trihydroxy-7-methoxy-4-(((1S,3R,4aS,9S,9aR,10aS)-9-methoxy-1-methyloctahydro-1H-pyrano[4′,3′:4,5]oxazolo[2,3-c][1,4]oxazin-3-yl)oxy)-6,11-dioxo-1,2,3,4,6,11-hexahydrotetracene-2-carboxamide] | – | 0.2 to 4
